Measurements reported in PubChem BioAssay AID686943 (Drosophila RNAi Screening Center, 2013).
Purpose: 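Search across the genome for regulators of signalling from receptor tyrosine kinase to ERK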 (primary screen). Cells: Drosophila S2R+ haemocyte-like cells expressing YFP-tagged ERK (Rolled). Reagent: long dsRNA against Drosophila genes. Challenge: insulin stimulation versus unstimulated cells; dose and duration not given. Measured: 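Antibody staining for doubly phosphorylated ERK divided by ERK-YFP signal, as plate z-scores, in insulin-treated and untreated cells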. Reading the numbers: replicate 1, z-score of dpERK with insulin and replicate 2, z-score of dpERK with insulin: higher = more active ERK per ERK-YFP after insulin; replicate 1, z-score of dpERK under basal conditions: higher = more basal active ERK per ERK-YFP; replicate 1, z-score of ERK-YFP with insulin: higher = more YFP-tagged ERK signal.
The screen tested about 23,000 reagents; below is a random part of those with a known target gene and a result. 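Extra replicates exist only for a retested subset of genes; insulin dose and duration not given; both raised and lowered dpERK matter.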 A plus sign joins genes that one reagent is predicted to hit. Not given: the amount of reagent, the time to read-out.

no.	gene	amplicon	replicate 1, z-score of dpERK with insulin	replicate 2, z-score of dpERK with insulin	replicate 1, z-score of dpERK under basal conditions	replicate 1, z-score of ERK-YFP with insulin
1	CG31626 + CG8677	DRSC21844	1.2	0.91	-1.07	-1.09
2	MFS18	DRSC00452	-0.31	0.4	-0.56	0.06
3	Rrp6	DRSC16223	0.15	0.94	6.58	-4.59
4	Obp44a	DRSC06838	0.14	-0.04	0.05	-0.62
5	Cad86C	DRSC15587	0.75	0.54	-0.44	0.18
6	Cad86C	DRSC15611	-0.73	-0.08	0.11	0.71
7	CG2887	DRSC18235	-0.62	-0.39	-0.19	1.31
8	CG6277	DRSC16008	0.01	-1.53	-1.21	-0.32
9	UQCR-Q	DRSC10886	-0.55	-0.46	0.19	2.07
10	CG30031 + deltaTry + gammaTry	DRSC07622	-0.2	-1.71	-0.43	0.14
11	CG18234	DRSC10309	0.08	-0.03	-0.1	0.81
12	Nup54	DRSC07282	-0.48	0.22	-0.09	0.05
13	pkm	DRSC19674	0.01	-1.37	0.15	-0.44
14	Elovl7	DRSC15452	0.09	-0.05	-0.06	0.28
15	Elovl7	DRSC21570	0.73	1.12	1.11	-0.43
16	AttC	DRSC06886	0.22	0.24	-0.02	-0.06
17	ND-15	DRSC00311	-0.29	-0.27	-0.61	-0.12
18	Naglu	DRSC02267	-0.42	0.32	0.73	-0.4
19	CG43367	DRSC08299	0.72	0.12	-1.52	-0.21
20	CG43367	DRSC08301	0.62	0.54	-1.01	-0.29
21	CG43367	DRSC08309	0.3	0.51	-0.12	0.27
22	svp	DRSC12899	-0.7	-0.79	0.51	0.51
23	svp	DRSC15311	-5.1	-2.85	-3.37	-2.99
24	svp	DRSC17075	1.51	1.37	1.55	-0.16
25	S-Lap1	DRSC10627	-0.46	-0.38	0.57	0
26	tud	DRSC04719	0.66	0.48	1.41	0.34
27	CG13000	DRSC19519	-2.07	-1.64	-1.03	-0.26
28	CG13229	DRSC06349	-0.05	-0.59	-0.45	0.1
29	inaD	DRSC04694	0.36	-0.02	0.84	0.47
30	Eaf6	DRSC09901	0.56	0.69	-0.59	-0.01
31	lambdaTry	DRSC06137	0.29	-0.1	-0.26	0.07
32	Bili	DRSC14405	2.41	-0.11	3.83	-4.24
33	Ing3	DRSC20002	0.33	1.13	0.77	1.62
34	CR12628 + Mgstl	DRSC03702	0.07	-0.13	-0.42	-0.19
35	CR12628 + Mgstl	DRSC20568	-0.11	0.68	-0.82	0.23
36	CG31454	DRSC14365	0.34	0.08	0.68	-0.24
37	CG31454	DRSC22801	0.16	-0.02	-0.19	-0.06
38	Or98b	DRSC16775	0.56	0	0.11	-0.43
39	Or98b	DRSC21751	-0.16	0.36	-0.48	-0.23
40	Sdc	DRSC04654	0.41	0.54	0.53	-2.45
41	Tfb4	DRSC00675	-0.25	-1.71	0.74	0.96
42	Fum3	DRSC10592	0.43	-0.02	0.19	0.16
43	fal	DRSC11087	0.07	-0.12	-3.18	-0.31
44	Iml1	DRSC08249	-1	-1.05	0.02	0.27
45	CG31800	DRSC22525	0.51	1.06	-0.32	0.77
46	Pcd	DRSC16785	1.88	3.29	-0.09	-0.68
47	su(w[a])	DRSC18840	-0.32	0.02	-0.17	1.09
48	Snap29	DRSC04721	0.16	0.91	0.59	1.27
49	Sumo	DRSC03611	1.41	2.98	0.69	-2.1
50	CG13842	DRSC14692	-1.05	-0.91	1.84	0.91
51	Strica	DRSC04920	0.43	0.95	0.3	0.18
52	Tti1	DRSC15163	-0.26	0.51	-0.02	-0.08
53	CG14856	DRSC14980	1.18	-1.66	-1.03	0.02
54	Xport-A + Xport-B	DRSC15586	1.89	0.91	0.18	-0.06
55	Irbp	DRSC17007	0.85	0.28	0.55	-0.47
56	CG5961	DRSC15927	0.28	0.53	-0.32	0.02
57	Surf6	DRSC15588	-0.11	0.31	0.98	-1.25

6 of these entries, set out differently:
{"gene":"CG13000","amplicon":"DRSC19519","replicate 1, z-score of dpERK with insulin":-2.07,"replicate 2, z-score of dpERK with insulin":-1.64,"replicate 1, z-score of dpERK under basal conditions":-1.03,"replicate 1, z-score of ERK-YFP with insulin":-0.26}
{"gene":"CG13229","amplicon":"DRSC06349","replicate 1, z-score of dpERK with insulin":-0.05,"replicate 2, z-score of dpERK with insulin":-0.59,"replicate 1, z-score of dpERK under basal conditions":-0.45,"replicate 1, z-score of ERK-YFP with insulin":0.1}
{"gene":"inaD","amplicon":"DRSC04694","replicate 1, z-score of dpERK with insulin":0.36,"replicate 2, z-score of dpERK with insulin":-0.02,"replicate 1, z-score of dpERK under basal conditions":0.84,"replicate 1, z-score of ERK-YFP with insulin":0.47}
{"gene":"Eaf6","amplicon":"DRSC09901","replicate 1, z-score of dpERK with insulin":0.56,"replicate 2, z-score of dpERK with insulin":0.69,"replicate 1, z-score of dpERK under basal conditions":-0.59,"replicate 1, z-score of ERK-YFP with insulin":-0.01}
{"gene":"lambdaTry","amplicon":"DRSC06137","replicate 1, z-score of dpERK with insulin":0.29,"replicate 2, z-score of dpERK with insulin":-0.1,"replicate 1, z-score of dpERK under basal conditions":-0.26,"replicate 1, z-score of ERK-YFP with insulin":0.07}
{"gene":"Bili","amplicon":"DRSC14405","replicate 1, z-score of dpERK with insulin":2.41,"replicate 2, z-score of dpERK with insulin":-0.11,"replicate 1, z-score of dpERK under basal conditions":3.83,"replicate 1, z-score of ERK-YFP with insulin":-4.24}
